Experimental data from US6491729B1.

Key:
[1] = surface of dyed fabric observed by scanning electron microscope (SEM) after dry-cleaning; conditions: dyed fabric of nylon, enlarged 1500 times
[2] = tensile strength (load weight, displacement, stress, specific stress, strain at the maximum load point); conditions: dyed fabric of nylon/polyacrylonitrile
[3] = as above; conditions: undyed fabric of gray silk goods
[4] = as above; conditions: undyed fabric of gray polyester goods
[5] = bursting strength and softness of fabric; conditions: dyed fabric of polyester/cotton
[6] = bursting strength and softness of fabric; conditions: undyed fabric of gray wool goods
[7] = yellowness index, whiteness index and Lab values of undyed fabric, Example 9; conditions: gray polyester goods
[8] = color fastness to abrasion, Example 8; conditions: dyed fabric of nylon/polyacrylonitrile
[9] = bursting strength and softness of fabric; conditions: undyed fabric of gray silk goods
[10] = yellowness index, whiteness index and Lab values of undyed fabric, Example 9; conditions: gray cotton goods

For `ClC(Cl)=C(Cl)Cl` [perchloroethylene], the “surface of the dyed fabric observed by SEM” value [1] was “flayed”, the displacement ([2]; dry-cleaned five times) was 57.66 mm and the load weight ([2]; dry-cleaned five times) was 9.67 kg. It also gave a specific stress ([2]; dry-cleaned five times) of 9.67 kg/L, a strain ([2]; dry-cleaned five times) of 38.44% and a stress ([2]; dry-cleaned five times) of 0.76 kg/mm^2. The displacement ([2]; dry-cleaned one time) was 73 mm, the load weight ([2]; dry-cleaned one time) was 12.86 kg and the specific stress ([2]; dry-cleaned one time) was 12.86 kg/L. For the same compound, the strain ([2]; dry-cleaned one time) was 48.66%, the stress ([2]; dry-cleaned one time) was 1 kg/mm^2 and the displacement ([2]; dry-cleaned two times) was 84.76 mm. For the same compound, the load weight ([2]; dry-cleaned two times) was 14.47 kg, the specific stress ([2]; dry-cleaned two times) was 14.47 kg/L and the strain ([2]; dry-cleaned two times) was 56.5%. The stress ([2]; dry-cleaned two times) was 1.13 kg/mm^2, the displacement ([3]; dry-cleaned five times) was 54.2 mm and the load weight ([3]; dry-cleaned five times) was 28.29 kg. The specific stress ([3]; dry-cleaned five times) was 28.29 kg/L, the strain ([3]; dry-cleaned five times) was 27.1% and the stress ([3]; dry-cleaned five times) was 5.14 kg/mm^2. It also gave a displacement ([3]; dry-cleaned one time) of 52.77 mm, a load weight ([3]; dry-cleaned one time) of 22.59 kg and a specific stress ([3]; dry-cleaned one time) of 22.59 kg/L. The strain ([3]; dry-cleaned one time) was 26.39%, the stress ([3]; dry-cleaned one time) was 4.11 kg/mm^2 and the displacement ([3]; dry-cleaned two times) was 64.41 mm. It also gave a load weight ([3]; dry-cleaned two times) of 23.81 kg, a specific stress ([3]; dry-cleaned two times) of 23.81 kg/L and a strain ([3]; dry-cleaned two times) of 33.7%. It also gave a stress ([3]; dry-cleaned two times) of 4.33 kg/mm^2, a displacement ([4]; dry-cleaned five times) of 54.62 mm and a load weight ([4]; dry-cleaned five times) of 36.66 kg. The specific stress ([4]; dry-cleaned five times) was 36.66 kg/L, the strain ([4]; dry-cleaned five times) was 27.31% and the stress ([4]; dry-cleaned five times) was 5.24 kg/mm^2. It also gave a displacement ([4]; dry-cleaned one time) of 60.46 mm, a load weight ([4]; dry-cleaned one time) of 33.2 kg and a specific stress ([4]; dry-cleaned one time) of 33.2 kg/L. It also gave a strain ([4]; dry-cleaned one time) of 30.23%, a stress ([4]; dry-cleaned one time) of 4.74 kg/mm^2 and a displacement ([4]; dry-cleaned two times) of 60.35 mm. It also gave a load weight ([4]; dry-cleaned two times) of 27.46 kg, a specific stress ([4]; dry-cleaned two times) of 27.46 kg/L and a strain ([4]; dry-cleaned two times) of 30.18%. The stress ([4]; dry-cleaned two times) was 3.92 kg/mm^2, the bursting strength ([5]; dry-cleaned five times) was 11.5 kg · f/cm^2 and the “bursting strength percentage of variation” value (from here on “bursting strength percentage”) ([5]; dry-cleaned five times) was −4.17%. The softness ([5]; dry-cleaned five times) was 2.7 cm, the “softness percentage of variation” value ([5]; dry-cleaned five times) was 2.66% and the bursting strength ([5]; dry-cleaned one time) was 2 kg · f/cm^2. The “bursting strength percentage” value ([5]; dry-cleaned one time) was 0%, the softness ([5]; dry-cleaned one time) was 2.45 cm and the “softness percentage of variation” value ([5]; dry-cleaned one time) was −6.84%. For the same compound, the bursting strength ([5]; dry-cleaned two times) was 12 kg · f/cm^2, the “bursting strength percentage” value ([5]; dry-cleaned two times) was 0% and the softness ([5]; dry-cleaned two times) was 3 cm. The “softness percentage of variation” value ([5]; dry-cleaned two times) was 14.07%, the bursting strength ([6]; dry-cleaned five times) was 22.25 kg · f/cm^2 and the “bursting strength percentage” value ([6]; dry-cleaned five times) was −0.76%. The softness ([6]; dry-cleaned five times) was 3.9 cm, the “softness percentage of variation” value ([6]; dry-cleaned five times) was 2.63% and the bursting strength ([6]; dry-cleaned one time) was 21.75 kg · f/cm^2. For the same compound, the “bursting strength percentage” value ([6]; dry-cleaned one time) was −3%, the softness ([6]; dry-cleaned one time) was 3.9 cm and the “softness percentage of variation” value ([6]; dry-cleaned one time) was 2.63%. The bursting strength ([6]; dry-cleaned two times) was 21 kg · f/cm^2, the “bursting strength percentage” value ([6]; dry-cleaned two times) was −6.33% and the softness ([6]; dry-cleaned two times) was 4 cm. For the same compound, the “softness percentage of variation” value ([6]; dry-cleaned two times) was 5.26%, the L ([7]; dry-cleaned five times) was 83.65 and the a ([7]; dry-cleaned five times) was 0.44. It also gave a b ([7]; dry-cleaned five times) of −5.81, a c ([7]; dry-cleaned five times) of 5.83 and a h ([7]; dry-cleaned five times) of 274.29. For the same compound, the ΔE ([7]; dry-cleaned five times) was 4.47, the ΔL ([7]; dry-cleaned five times) was −4.18 and the Δa ([7]; dry-cleaned five times) was 0.31. For the same compound, the Δb ([7]; dry-cleaned five times) was 1.56, the Δc ([7]; dry-cleaned five times) was −1.54 and the Δh ([7]; dry-cleaned five times) was 0.38. The L ([7]; dry-cleaned one time) was 83.3, the a ([7]; dry-cleaned one time) was 0.38 and the b ([7]; dry-cleaned one time) was −5.57. For the same compound, the c ([7]; dry-cleaned one time) was 5.58, the h ([7]; dry-cleaned one time) was 273.87 and the ΔE ([7]; dry-cleaned one time) was 4.88. It also gave a ΔL ([7]; dry-cleaned one time) of −4.53, a Δa ([7]; dry-cleaned one time) of 0.25 and a Δb ([7]; dry-cleaned one time) of 1.81. For the same compound, the Δc ([7]; dry-cleaned one time) was 1.79, the Δh ([7]; dry-cleaned one time) was 0.33 and the L ([7]; dry-cleaned two times) was 88.14. The a ([7]; dry-cleaned two times) was 0.18, the b ([7]; dry-cleaned two times) was −6.6 and the c ([7]; dry-cleaned two times) was 6.6. The h ([7]; dry-cleaned two times) was 271.58, the ΔE ([7]; dry-cleaned two times) was 4.47 and the ΔL ([7]; dry-cleaned two times) was −4.18. For the same compound, the Δa ([7]; dry-cleaned two times) was 0.31, the Δb ([7]; dry-cleaned two times) was 1.56 and the Δc ([7]; dry-cleaned two times) was −1.54. For the same compound, the Δh ([7]; dry-cleaned two times) was 0.38, the “the grade of the color fastness to abrasion, after the test” value (shortened to “the grade … after the test”) ([8]; dry-cleaned five times) was “fourth to fifth grade” and the “the grade of the color fastness to abrasion, before the test” value (from here on “the grade … before the test”) ([8]; dry-cleaned five times) was “fourth to fifth grade”. The “the grade … after the test” value ([8]; dry-cleaned one time) was “fourth to fifth grade”, the “the grade … before the test” value ([8]; dry-cleaned one time) was “fourth to fifth grade” and the “the grade … after the test” value ([8]; dry-cleaned two times) was “fourth to fifth grade”. The “the grade … before the test” value ([8]; dry-cleaned two times) was “fourth to fifth grade”, the bursting strength ([9]; dry-cleaned five times) was 11 kg · f/cm^2 and the “bursting strength percentage” value ([9]; dry-cleaned five times) was −14.53%. The softness ([9]; dry-cleaned five times) was 1.8 cm, the “softness percentage of variation” value ([9]; dry-cleaned five times) was −25% and the bursting strength ([9]; dry-cleaned one time) was 11.75 kg · f/cm^2. For the same compound, the “bursting strength percentage” value ([9]; dry-cleaned one time) was −8.7%, the softness ([9]; dry-cleaned one time) was 2.1 cm and the “softness percentage of variation” value ([9]; dry-cleaned one time) was −12.5%. For the same compound, the bursting strength ([9]; dry-cleaned two times) was 10.5 kg · f/cm^2, the “bursting strength percentage” value ([9]; dry-cleaned two times) was −18.41% and the softness ([9]; dry-cleaned two times) was 2 cm. The “softness percentage of variation” value ([9]; dry-cleaned two times) was −16.67%, the L ([10]; dry-cleaned five times) was 88.27 and the a ([10]; dry-cleaned five times) was −0.14. It also gave a b ([10]; dry-cleaned five times) of 1.8, a c ([10]; dry-cleaned five times) of 1.81 and a h ([10]; dry-cleaned five times) of 94.57. It also gave a ΔE ([10]; dry-cleaned five times) of 0.27, a ΔL ([10]; dry-cleaned five times) of 0.15 and a Δa ([10]; dry-cleaned five times) of 0.14. For the same compound, the Δb ([10]; dry-cleaned five times) was 0.19, the Δc ([10]; dry-cleaned five times) was 0.17 and the Δh ([10]; dry-cleaned five times) was −0.16. It also gave an L ([10]; dry-cleaned one time) of 87.59, an a ([10]; dry-cleaned one time) of −0.17 and a b ([10]; dry-cleaned one time) of 1.81. For the same compound, the c ([10]; dry-cleaned one time) was 1.81, the h ([10]; dry-cleaned one time) was 95.28 and the ΔE ([10]; dry-cleaned one time) was 0.58. The ΔL ([10]; dry-cleaned one time) was −0.54, the Δa ([10]; dry-cleaned one time) was 0.11 and the Δb ([10]; dry-cleaned one time) was 0.19. The Δc ([10]; dry-cleaned one time) was 0.18, the Δh ([10]; dry-cleaned one time) was −0.14 and the L ([10]; dry-cleaned two times) was 88.43. For the same compound, the a ([10]; dry-cleaned two times) was −0.16, the b ([10]; dry-cleaned two times) was 1.81 and the c ([10]; dry-cleaned two times) was 1.81. The h ([10]; dry-cleaned two times) was 95.15, the ΔE ([10]; dry-cleaned two times) was 0.37 and the ΔL ([10]; dry-cleaned two times) was 0.3. For the same compound, the Δa ([10]; dry-cleaned two times) was 0.12, the Δb ([10]; dry-cleaned two times) was 0.19 and the Δc ([10]; dry-cleaned two times) was 0.17. For the same compound, the Δh ([10]; dry-cleaned two times) was −0.14.
